In patent US20070189982A1:
These are yes or no findings as the source states them, for the method shown. In cells and extracts the contact can be indirect. Some results given as binding are weak or reduced against the parent protein; the word gives no strength.

Target: PrtK (mature product of the prtK gene: PrtK48, PrtK39, PrtK15, PrtK44) (Porphyromonas gingivalis W50) (UniProt Q51817)
Experiment: co-purification by anion exchange, gel filtration and Arg-sepharose FPLC; SDS-PAGE with and without boiling; N-terminal sequencing

PrtR (mature product of the prtR gene: PrtR45, PrtR44, PrtR15, PrtR17, PrtR27) (from UniProt B2RM93 225-1703) (enzyme)
binding: binds
